# According to paper PMC4647837 (Scientific Reports, 2015):
# Assay: general procedure: Fmoc solid-phase peptide synthesis; 2-chlorotrityl chloride resin
# Settings: conjugation step
substance,measurement,value
Rhodamine-GFFYE-CS-EE,conjugation yield,80% yield
